# Values of other authors in patent publication US12590297B2, “Differentiation method” (Koninklijke Nederlandse Akademie Van Wetenschappen, priority 2016, dated 2026).
# At least one structure is not confirmed: it was looked up by name or label, or the drawing left a doubt.
# Target: T1, glucocorticoid receptor (Homo sapiens, UniProt P04150)
# T1 sequence (P04150 1-777): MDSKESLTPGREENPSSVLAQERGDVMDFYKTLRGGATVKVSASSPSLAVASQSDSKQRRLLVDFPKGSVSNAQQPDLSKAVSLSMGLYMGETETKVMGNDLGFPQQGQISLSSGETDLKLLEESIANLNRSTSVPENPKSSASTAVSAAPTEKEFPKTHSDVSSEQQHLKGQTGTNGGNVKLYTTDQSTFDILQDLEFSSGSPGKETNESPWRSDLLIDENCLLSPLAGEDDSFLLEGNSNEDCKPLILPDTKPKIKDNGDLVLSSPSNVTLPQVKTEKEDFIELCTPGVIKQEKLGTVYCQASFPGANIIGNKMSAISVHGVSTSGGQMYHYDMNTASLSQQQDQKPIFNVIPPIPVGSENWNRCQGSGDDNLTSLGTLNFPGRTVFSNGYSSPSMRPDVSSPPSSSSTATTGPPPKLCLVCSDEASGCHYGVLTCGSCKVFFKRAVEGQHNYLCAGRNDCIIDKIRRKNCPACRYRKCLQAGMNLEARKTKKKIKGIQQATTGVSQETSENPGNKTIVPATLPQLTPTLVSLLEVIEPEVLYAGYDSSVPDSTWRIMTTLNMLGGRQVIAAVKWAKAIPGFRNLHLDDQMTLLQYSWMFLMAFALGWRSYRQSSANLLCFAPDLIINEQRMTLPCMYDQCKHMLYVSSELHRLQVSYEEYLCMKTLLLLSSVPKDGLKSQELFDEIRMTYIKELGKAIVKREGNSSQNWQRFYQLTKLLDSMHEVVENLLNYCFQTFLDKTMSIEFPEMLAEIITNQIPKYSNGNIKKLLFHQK
# Settings: in comparison to cortisol; oral dosing; cited from earlier work
structure (smiles),measurement,value
C[C@H]1C[C@@H]2[C@H]([C@@H](O)C[C@@]3(C)[C@H]2CC[C@]3(O)C(=O)CO)[C@@]2(C)C=CC(=O)C=C12 [Methylprednisolone],Glucocorticoid potency,5-7.5
